Article PMC12343034, “ArnR binds a [4Fe–4S] cluster and indirectly senses anaerobicity in Corynebacteria”

Tests used:
[1] = molecular target: T1, ArnR ([4Fe-4S] form) (Corynebacterium glutamicum ATCC 13032) (UniProt Q8NR72); assay: SPR; details: anaerobic, 1 mM DTT, SPR: HBS+P (10 mM HEPES, 150 mM NaCl, surfactant P20) with 1 mM DTT, pH 7.4, 25 C, recombinant protein, protein details: C-terminal His
T1 sequence (looked up, limits assumed): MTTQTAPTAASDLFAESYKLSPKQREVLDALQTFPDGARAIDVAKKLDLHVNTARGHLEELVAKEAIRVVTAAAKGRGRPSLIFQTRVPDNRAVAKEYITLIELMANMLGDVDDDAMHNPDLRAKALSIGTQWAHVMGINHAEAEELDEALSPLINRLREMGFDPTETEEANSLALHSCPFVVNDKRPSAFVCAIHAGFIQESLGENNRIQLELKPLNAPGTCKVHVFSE

[2] = molecular target: T1, ArnR ([4Fe-4S] form) (Corynebacterium glutamicum ATCC 13032); assay: native MS; details: native MS: DNA in 100 mM ammonium acetate, pH 8, recombinant protein, protein details: C-terminal His

“GCAGGAGGACGTAGGGTAGG (double strand) [ReDCaT reference duplex (ReDCaT_F/ReDCaT_R)]”: no binding ([1]; negligible binding to reference surface, label: biotin on ReDCaT_F).
“GGATTTAATCTAATTAAATAAATCCCAGGA (double strand) [hmp promoter 30 bp (JC05_F/JC06_R)]”: no binding ([2]; di-nitrosylated [4Fe-4S] dimer (2 NO per dimer, DEA NONOate, ~2 NO per cluster)); binds more weakly ([2]; mono-nitrosylated [4Fe-4S] dimer (1 NO per dimer, DEA NONOate, ~2 NO per cluster), retains DNA binding to some extent).
Work on “GGATTTAATCTAATTAAATAAATCCCAGGA / TCCTGGGATTTATTTAATTAGATTAAATCCCCTACCCTACGTCCTCCTGC / GCAGGAGGACGTAGGGTAGG” yielded a Kd ([1]; concentration as ArnR dimer (60 nM as cluster), label: biotin on ReDCaT_F (S9)) of 0.03 µM.

For at least one entry, the source does not settle the construct or the ends of the probe. No signal at the amounts used counts as a negative. Tags and fusion partners may be left off the protein sequences shown. For some of these results: Weaker means in comparison with the reference protein, sequence or condition of that experiment.
